The text below walks through data of ChEMBL document CHEMBL4303122, “Identification of potential treatments for COVID-19 through artificial intelligence-enabled phenomic analysis of human cells infected with SARS-CoV-2” (2020).

Whole data set: some 1,600 compounds, median “Hit score” near 0.13, cut for the highest 2% near 0.46. The list shows a part of the results.

This assay concerns SARS-CoV-2. Briefly: Antiviral activity against SARS-CoV-2 (USA-WA1/2020 strain) measured by imaging in HRCE cells at MOI 0.4 after 96 hrs (reported as hit score from 0-1 for on-disease vs off-disease activity: scores >0.6 considered hits). It counts as functional, Homo sapiens.
Compound `O=C(/C=C\n1cnc(-c2cc(C(F)(F)F)cc(C(F)(F)F)c2)n1)N1CC(F)(F)C1` returned a Hit score of 0.328. The result for `CN(CC(=O)O)C(=N)N` [CREATINE] reads 0.1325; that for `c1ccc2c(CC3=NCCN3)cccc2c1` [NAPHAZOLINE], 0.002061. The result for `CCN(CC)CC(=O)Nc1c(C)cccc1C` [LIDOCAINE] reads 0.1688; that for `C=C[C@H]1CN2CC[C@H]1C[C@H]2[C@H](OC(=O)OCC)c1ccnc2ccc(OC)cc12` [QUININE ETHYLCARBONATE], 0.1872. Regarding `O=C1NS(=O)(=O)c2ccccc21` [SACCHARIN], the Hit score was 0.1191. The result for `CC(=O)CC(c1ccccc1)c1c(O)c2ccccc2oc1=O` (configuration not stated) [WARFARIN] reads 0.06756; that for `CC(C)COc1ccc(CNC(=O)N(Cc2ccc(F)cc2)C2CCN(C)CC2)cc1` [PIMAVANSERIN], -0.09171; that for `CO[C@@H]1[C@@H](O[C@@H]2O[C@H](C)[C@@H](O[C@H]3C[C@@](C)(O)[C@@H](OC(=O)CC(C)C)[C@H](C)O3)[C@H](N(C)C)[C@H]2O)[C@@H](CC=O)C[C@@H](C)[C@@H](O)/C=C/C=C/C[C@@H](C)OC(=O)C[C@H]1OC(C)=O` [JOSAMYCIN], 0.08039. The result for `NC(=O)NCCC[C@H](N)C(=O)O` [L-CITRULLINE] reads 0.1542; that for `COc1ccc2c3c1O[C@H]1C[C@@H](O)C=C[C@@]31CCN(C)C2` [GALANTAMINE], 0.2532. Compound `CNC(=O)c1cc(Oc2ccc(NC(=O)Nc3ccc(Cl)c(C(F)(F)F)c3)cc2)ccn1` [SORAFENIB] showed a Hit score of 0.2484. The result for `COc1cccc2c1C(=O)c1c(O)c3c(c(O)c1C2=O)C[C@@](O)(C(C)=O)C[C@@H]3O[C@H]1C[C@H](N)[C@H](O)[C@H](C)O1` [DAUNORUBICIN] reads -0.08012; that for `CN(C)CCn1nnnc1SCC1=C(C(=O)O)N2C(=O)[C@@H](NC(=O)Cc3csc(N)n3)[C@H]2SC1` [CEFOTIAM], 0.003068; that for `O=C(O)[C@H](CC(=O)N1C[C@H]2CCCC[C@H]2C1)Cc1ccccc1` [MITIGLINIDE], 0.1383. Then `Cc1cn([C@H]2C=C[C@@H](CO)O2)c(=O)[nH]c1=O` [STAVUDINE], with 0.0534; and `CC(=O)NS(=O)(=O)c1ccc(N)cc1` [SULFACETAMIDE], with 0.2126; and `NS(=O)(=O)c1cc2c(cc1C(F)(F)F)NCNS2(=O)=O` [HYDROFLUMETHIAZIDE], with 0.1879. Then `N[C@@H](CCN[C@@H](CCN1CC[C@H]1C(=O)O)C(=O)O)C(=O)O`, with 0.1041; and `N[C@@H](Cc1c[nH]c2ccccc12)C(=O)O` [TRYPTOPHAN], with 0.2037. On to `CN1C[C@H](CNC(=O)OCc2ccccc2)C[C@@H]2c3cccc4c3c(cn4C)C[C@H]21` [METERGOLINE], for which the Hit score came out at 0.1289.

In turn, `CC(O)Cn1cnc2c1c(=O)n(C)c(=O)n2C` (configuration not stated) [PROXYPHYLLINE] showed a Hit score of 0.05419. Then `CS(=O)(=O)OCCCCOS(C)(=O)=O` [BUSULFAN], with 0.105; and `Cc1c(NC(=O)c2cccnc2)c(=O)n(-c2ccccc2)n1C` [NIFENAZONE], with 0.01839.

`CC[C@@H]1C(=O)OC[C@@H]1Cc1cncn1C` [PILOCARPINE] had a Hit score of 0.1136.

On to `CC(C)(CO)c1cc2cc(NC(=O)C3(c4ccc5c(c4)OC(F)(F)O5)CC3)c(F)cc2n1C[C@@H](O)CO` [TEZACAFTOR], for which the Hit score is given as 0.1873. Then `COc1cc2nccc(Oc3ccc(NC(=O)NC4CC4)c(Cl)c3)c2cc1C(N)=O` [LENVATINIB], with 0.3778; and `C[C@@H](O[C@H]1OCCN(Cc2nn(P(=O)(O)O)c(=O)[nH]2)[C@H]1c1ccc(F)cc1)c1cc(C(F)(F)F)cc(C(F)(F)F)c1` [FOSAPREPITANT], with 0.000417; and `CCC(C)(Oc1ccc(C2(c3ccc(OC(C)(CC)C(=O)O)cc3)CCCCC2)cc1)C(=O)O` (configuration not stated) [CLINOFIBRATE], with 0.1194. Then `CN(C)/C=N/c1c(I)cc(I)c(CCC(=O)O)c1I` [IPODATE], with 0.09433.

In the case of `CCCCC[C@H](O)/C=C/[C@H]1[C@H](O)CC(=O)[C@@H]1C/C=C\CCCC(=O)O` [DINOPROSTONE], the Hit score amounted to 0.143.

The compound `CN(CCOP(=O)(O)O)C(=N)N` [CREATINOLFOSFATE] showed a Hit score of 0.1189. In turn, `CC1(C)S[C@@H]2[C@H](NC(=O)[C@H](NC(=O)N3CCNC3=O)c3ccccc3)C(=O)N2[C@H]1C(=O)O` [AZLOCILLIN] registered a Hit score of 0.03844. The result for `CSc1nc2cc(Cl)c(Oc3cccc(Cl)c3Cl)cc2[nH]1` [TRICLABENDAZOLE] reads 0.18; that for `Cc1ccccc1N1CCN(CCc2nnc3n2CCCC3)CC1` [DAPIPRAZOLE], 0.153. Then `COc1ccc2c(c1)[C@]13CCCC[C@@H]1[C@H](C2)N(C)CC3` [DEXTROMETHORPHAN], with 0.09056; and `N#C/C(=C1/SCC(c2ccccc2Cl)S1)n1ccnc1` (configuration not stated) [LANOCONAZOLE], with 0.0264; and `Cc1cccc(C)c1NC(=O)c1cc(S(N)(=O)=O)c(Cl)cc1O` [XIPAMIDE], with 0.118.

`NC(=O)c1cnccn1` [PYRAZINAMIDE] showed a Hit score of 0.1788. `Cn1cnc2c(F)c(Nc3ccc(Br)cc3F)c(C(=O)NOCCO)cc21` [BINIMETINIB] had a Hit score of 0.0233. Turning to `COc1c(-c2ccc3cc(NS(C)(=O)=O)ccc3c2)cc(-n2ccc(=O)[nH]c2=O)cc1C(C)(C)C` [DASABUVIR], the Hit score was determined as 0.3029. Compound `Cc1[nH]c(=O)c(C#N)cc1-c1ccc2nccn2c1` [OLPRINONE] registered a Hit score of 0.1194. The result for `C[C@H](CCC(=O)O)[C@H]1CC[C@H]2[C@@H]3[C@H](O)C[C@@H]4C[C@H](O)CC[C@]4(C)[C@H]3C[C@H](O)[C@]12C` [CHOLIC ACID] reads 0.1604; that for `O[C@H]1[C@H](O)[C@@H](O)[C@H](O)[C@@H](O)[C@H]1O` [INOSITOL], 0.1465.

Turning to `CCCN(CCC)CCc1cccc2c1CC(=O)N2` [ROPINIROLE], the Hit score is 0.09207.

In the case of `COc1cccc2c1C(=O)c1c(O)c3c(c(O)c1C2=O)C[C@@](O)(C(=O)CO)C[C@@H]3O[C@H]1C[C@H](N)[C@@H](O)[C@H](C)O1` [EPIRUBICIN], the Hit score is 0.0714.

Take `N[C@@H](CCC(=O)O)C(=O)O` [GLUTAMIC ACID]: the Hit score was 0.1738. `COc1ccc2cc([C@H](C)C(=O)O)ccc2c1` [NAPROXEN]: the Hit score was 0.1887. The result for `O=C(O)c1ccccc1OP(=O)(O)O` [FOSFOSAL] reads 0.1484; that for `Cc1ncc([N+](=O)[O-])n1CC(C)O` (configuration not stated) [SECNIDAZOLE], 0.1488; that for `C/C=C(/C(=C/C)c1ccc(O)cc1)c1ccc(O)cc1` [DIENESTROL], 0.02745. The compound `O=C1[C@H]2CCCC[C@H]2C(=O)N1CCCCN1CCN(c2nsc3ccccc23)CC1` [PEROSPIRONE] displayed a Hit score of 0.1455. The result for `Cc1cc(S(=O)(=O)[O-])c2c(C)ccc(C(C)C)cc1-2.[Na+]` [SODIUM GUALENATE] reads 0.2044. `CC(=O)NCCCCCC(=O)O` [ACEXAMIC ACID] came in with a Hit score of 0.3113. The result for `Oc1ccnc2cc(Cl)ccc12` reads 0.1769; that for `O=c1n(CCCN2CCN(c3cccc(Cl)c3)CC2)nc2ccccn12` [TRAZODONE], 0.2113. Then `CC(=O)OCC(=O)[C@@]12N=C(C)O[C@@H]1C[C@H]1[C@@H]3CCC4=CC(=O)C=C[C@]4(C)[C@H]3[C@@H](O)C[C@@]12C` [DEFLAZACORT], with 0.3895; and `c1coc(CNc2ncnc3[nH]cnc23)c1` [KINETIN], with 0.2348. For `CCOc1ccc2nc(S(N)(=O)=O)sc2c1` [ETHOXZOLAMIDE], the Hit score worked out at 0.09234. The result for `CCOC(=O)[C@H](CCc1ccccc1)N[C@@H](C)C(=O)N1C(=O)N(C)C[C@H]1C(=O)O` reads 0.07158; that for `CCOC(=O)c1cnc2c(cnn2CC)c1NN=C(C)C` [ETAZOLATE], 0.1272; that for `O=C(O)c1cc(/N=N/c2ccc(S(=O)(=O)Nc3ccccn3)cc2)ccc1O` [SULFASALAZINE], 0.04911. The result for `CC(C)N(CCCCOCC(=O)NS(C)(=O)=O)c1cnc(-c2ccccc2)c(-c2ccccc2)n1` [SELEXIPAG] reads 0.0592; that for `CN/C(=N\CCSCc1nc[nH]c1C)NC#N` [CIMETIDINE], 0.04968.

As to `C[C@@H]1C[C@H]2[C@@H]3CCC4=CC(=O)C=C[C@]4(C)[C@@]3(F)[C@@H](O)C[C@]2(C)[C@@]1(O)C(=O)COP(=O)([O-])[O-].[Na+].[Na+]` [DEXAMETHASONE SODIUM PHOSPHATE], the Hit score was 0.2627. The result for `Cc1cn(-c2cc(NC(=O)c3ccc(C)c(Nc4nccc(-c5cccnc5)n4)c3)cc(C(F)(F)F)c2)cn1` [NILOTINIB] reads 0.4816; that for `Cc1cc(O)cc(C)c1Cl` [CHLOROXYLENOL], 0.1774; that for `CC1=C(C(=O)O)N2C(=O)[C@@H](NC(=O)[C@H](N)c3ccc(O)cc3)[C@H]2SC1` [CEFADROXIL], 0.046.

`Oc1cccc(O)c1` [RESORCINOL] displayed a Hit score of 0.1269. Then `C[C@@H](O[C@H]1OCCN(Cc2n[nH]c(=O)[nH]2)[C@H]1c1ccc(F)cc1)c1cc(C(F)(F)F)cc(C(F)(F)F)c1` [APREPITANT], with -0.045; and `CC(Cc1ccc(O)cc1)NCC(O)c1cc(O)cc(O)c1` (configuration not stated) [FENOTEROL], with -0.1459; and `CC(N)CCCC(C)(C)O` (configuration not stated) [HEPTAMINOL], with 0.1609.
